The text below walks through data of article PMC7819943, “Rice protein-binding microarrays: a tool to detect cis-acting elements near promoter regions in rice”.

Protein sequences, listed by entry. Tags and fused reporters are not part of them.
UniProt Q0JBA9, entry or part of it: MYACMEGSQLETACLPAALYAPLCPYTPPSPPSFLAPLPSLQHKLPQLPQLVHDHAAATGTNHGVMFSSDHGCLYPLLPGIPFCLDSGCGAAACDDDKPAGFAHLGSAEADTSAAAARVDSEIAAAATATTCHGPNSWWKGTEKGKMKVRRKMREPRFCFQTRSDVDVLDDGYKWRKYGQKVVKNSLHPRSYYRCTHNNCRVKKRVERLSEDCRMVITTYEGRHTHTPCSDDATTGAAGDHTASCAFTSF

The list shows a part of the results.

For the test, the target named is OsWRKY34 (Oryza sativa, UniProt Q0JBA9 1-250). Description: protein-binding microarray (RPBM); PBS, 2% BSA, 51.3 ng/ul salmon testes DNA, 50 uM zinc acetate, 200 nM TF, 25 C, 1 h; high values mean tight binding. The conditions noted are these: protein: recombinant; tags: N-terminal polyhistidine and DsRed monomer fusion (pET32a); label: CyDye5-dUTP incorporated in the synthesized complementary strand; 3' TTTTT single-stranded linker to array surface; dsDNA, one strand shown. Put shortly: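 Binding signal here means per-feature fluorescence intensity in arbitrary units. The values were read on an Axon 4000B scanner after a custom Agilent array, double-stranded by primer extension with Cy5-dUTP, was incubated with 200 nM protein at 25 °C for 1 h in PBS with 2% BSA, salmon testes DNA and 50 µM zinc acetate, then washed. The proteins were transcription factors with an N-terminal polyhistidine tag and DsRed, expressed in E. coli BL21-CodonPlus and purified on Ni–NTA.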
“TTGCCTTTTCGTCTGGGTTCTTTTCTCGGTGGCCTCTGTTCGGAGTCACCTAGTGCAG”: the binding signal is 10700 fluorescence intensity (a.u.).
The figure for “TTTTTTTTTCTCTCGGGGTTTTTATTGCTCGAGATGTTCTCGGAGTCACCTAGTGCAG” is 11200 fluorescence intensity (a.u.); for “AATTCACCATCTGCACCGATCTCCATCCTACGAGCGCCGGCGGAGTCACCTAGTGCAG” it is 9580 fluorescence intensity (a.u.); for “ACGTATACGTGTATTCCTCTTCTGTATTTTTCCATTTGATCGGAGTCACCTAGTGCAG” it is 8830 fluorescence intensity (a.u.).
Next, “CTCTTCATTCATAATTCATCTCCACATTCTTCATTCTCCACGGAGTCACCTAGTGCAG”: 9490 fluorescence intensity (a.u.); “AAGGAGAGCGACTTGAGGGAGGGGTTGTGCTCGACGGAGTCGGAGTCACCTAGTGCAG”: 8040 fluorescence intensity (a.u.); “AGTTTTTGTCTTGTCTGTTTCCTCTGCAATCGGTCCAACTCGGAGTCACCTAGTGCAG”: 10700 fluorescence intensity (a.u.).
Take “CCACTCCGGCGACTCCTCCGCCGCATCCCGAGCAAGCAAGCGGAGTCACCTAGTGCAG”: the binding signal is 8670 fluorescence intensity (a.u.).
Next, “TCTCTTTCTCTCGCTTTCTTTTTGCATAGTTTTCTTCATGCGGAGTCACCTAGTGCAG”: 8700 fluorescence intensity (a.u.); “CGCTCGCCGACTCGCGTTTTGTTTGTCACTTGTCACTAGTCGGAGTCACCTAGTGCAG”: 8790 fluorescence intensity (a.u.).
Next, “CGTGTGACCCATTTTTCGTTGGTACCAACGCGCGAGCTTGCGGAGTCACCTAGTGCAG”: 8280 fluorescence intensity (a.u.); “CTACCTTTTTAGCGATTTCTGCTCCGTCCTGCTGCTACCGCGGAGTCACCTAGTGCAG”: 8220 fluorescence intensity (a.u.).
The figure for “TTTTTCTCGCCTTTTTTTCCACCGGACAACGGAAACTTCTCGGAGTCACCTAGTGCAG” is 9150 fluorescence intensity (a.u.); for “CTACAATATAGTACATATATACTCGCTCCATTCCATCCCTCGGAGTCACCTAGTGCAG” it is 8320 fluorescence intensity (a.u.); for “AAATTTTTTGGTGTCACATCGGACGTTTGACCGGATGTCTCGGAGTCACCTAGTGCAG” it is 8630 fluorescence intensity (a.u.).
As for “ATTGATTTGCTTTTATCTAGTACTAGCTTTTTAAATCGCGCGGAGTCACCTAGTGCAG”, the binding signal was 8490 fluorescence intensity (a.u.).
The figure for “CTCCTTCTCTGCTTGGCGGGGCGGGCGGTGGTAATAACCGCGGAGTCACCTAGTGCAG” is 13000 fluorescence intensity (a.u.).
As for “CAGGCTTTTGTTCATTTACATGCACCATTTTCTTTCTCATCGGAGTCACCTAGTGCAG”, the binding signal is 8500 fluorescence intensity (a.u.).
On to “CACACGCCCACAGCAACTATCACTCTTCATCATCATCTTCCGGAGTCACCTAGTGCAG”, for which the binding signal is 9200 fluorescence intensity (a.u.).
The figure for “ATCTCTGATCCGTCCAGTTGACCCAAAGCTAGAGTCTTTCCGGAGTCACCTAGTGCAG” is 10700 fluorescence intensity (a.u.); for “TATCTATTTTCTTCTTGGGATCAATGTTGAAGTTCCAAATCGGAGTCACCTAGTGCAG” it is 8440 fluorescence intensity (a.u.).
Next, “GTTTCACAATGTAAGTCATTCTAGCATTTCTCACATTCATCGGAGTCACCTAGTGCAG”: 8890 fluorescence intensity (a.u.); “GATAAAACTTTACGGTGCATGTATTGGTCTCGGTCTACGACGGAGTCACCTAGTGCAG”: 9520 fluorescence intensity (a.u.).
As for “CTCCTCGTCTCCGCTCCTCTCTCCACGTGTTGACCAGGCCCGGAGTCACCTAGTGCAG”, the binding signal was 8900 fluorescence intensity (a.u.).
Next, “ATAGTATTATATGCGCTTATTCTTATATGAACCATCATTACGGAGTCACCTAGTGCAG”: 8510 fluorescence intensity (a.u.).
Turning to “ATCCCGACCACCGCTCCTCCGCCTCCGCCTCTCATATTTTCGGAGTCACCTAGTGCAG”, the binding signal is 12900 fluorescence intensity (a.u.).
The figure for “CCCGTCTACAGTCCGGTCGTTTGATTTAGTCACTTGGGTTCGGAGTCACCTAGTGCAG” is 8900 fluorescence intensity (a.u.); for “CCCTCTGTCCTATATCTCTTTCTGCTCTTCTGCTTCTTCTCGGAGTCACCTAGTGCAG” it is 9090 fluorescence intensity (a.u.).
The figure for “GCCTTTATATATACCCTTCGTCTCGGAACGTCGTCTTCTACGGAGTCACCTAGTGCAG” is 9660 fluorescence intensity (a.u.).
On to “CTTCTCCTCTGCTCGCCCCGCCGCCGCCGCCGTCTCCGCGCGGAGTCACCTAGTGCAG”, for which the binding signal was 8940 fluorescence intensity (a.u.).
Next, “ACATCAAAATTTTCATACACACAACTTTTCTATCATATTACGGAGTCACCTAGTGCAG”: 10000 fluorescence intensity (a.u.); “AGCCTTTCTTTATAGTGGCCATTGCCTTACTTGTTGCACTCGGAGTCACCTAGTGCAG”: 9440 fluorescence intensity (a.u.).
The figure for “TCATACACAACTTTTCAGTCACATCATCTCCAATTTCAACCGGAGTCACCTAGTGCAG” is 8620 fluorescence intensity (a.u.); for “TGATTGTTCAGGCTAAATTTGCTACTCCGTCCGATTCATACGGAGTCACCTAGTGCAG” it is 8840 fluorescence intensity (a.u.).
Next, “GCCACCACATTTAGCGCCCGCCGCCACCGCTGCCGCCGCCCGGAGTCACCTAGTGCAG”: 8360 fluorescence intensity (a.u.); “GTACACTCCTCGATCGCCTCGATTCTCTCTTCCGATTCGACGGAGTCACCTAGTGCAG”: 8630 fluorescence intensity (a.u.).
As for “ATCGTTTTCTGTCCGCTTTGATTGTTATTGACCTAGCCACCGGAGTCACCTAGTGCAG”, the binding signal is 10500 fluorescence intensity (a.u.).
As for “TCATAATCTCATTCATGTACCAACCACACATCTCCATCATCGGAGTCACCTAGTGCAG”, the binding signal was 9270 fluorescence intensity (a.u.).
The figure for “CCTTTACAGGTCAGTATTTTCACAAACAGTTACAGAATCACGGAGTCACCTAGTGCAG” is 9080 fluorescence intensity (a.u.); for “GTGGAGGTGTTAAGGATAGTATGTCTAGAGGTATTTTAGACGGAGTCACCTAGTGCAG” it is 8350 fluorescence intensity (a.u.); for “GCCTTTTGGCTAAGATCAAGTGTAGTATCTGTTCTTATCACGGAGTCACCTAGTGCAG” it is 8650 fluorescence intensity (a.u.).
The figure for “GTTAGGTAGTGTTTGGTTGGAGGGATATCCCGGGATGGGACGGAGTCACCTAGTGCAG” is 9000 fluorescence intensity (a.u.).
